PubChem BioAssay AID1259308, NCATS, 2017

Purpose: 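Knock-downs that increase output of a recombinant reporter protein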 (primary screen)
System: human HEK293 embryonic kidney cells stably expressing firefly luciferase (HEK-CMV-Luc2-Hygro)
Reagents: single siRNA against human genes, 0.8 pmol siRNA per well
Timing: 72 h
Measurement: 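Luciferase light (ONE-Glo) measured on one replicate plate set and viability (CellTiter-Glo) on the other, scaled to a negative control siRNA, with robust z-scores and luciferase per cell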
Direction: total luciferase, z-score and total luciferase, % of control: higher = more reporter protein produced; luciferase per cell, z-score: higher = more reporter output per viable cell; viable cells, % of control: higher = more viable cells
Hit rule: 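Active when the median/MAD z-score for overall luciferase is greater than 3; a gene was taken forward for validation with new siRNAs if at least two of its three siRNAs passed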
Calls: active = raised luciferase; inactive = no rise
In all, the deposit lists about 59,000 reagents; below is a random part of them. About 1,510 of them (2.6%) were called active. 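Calls use total luciferase alone and ignore viability, so some active siRNAs may act by altering cell number.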 The numbers tell different reagents against one gene apart.

total luciferase, z-score	total luciferase, % of control	luciferase per cell, z-score	viable cells, % of control	Outcome	gene	siRNA no.
-0.916	63.7	-1.38	102	inactive	VAMP7 (vesicle associated membrane protein 7)	1
0.111	84.1	-0.655	112	inactive	VAMP7 (vesicle associated membrane protein 7)	2
0.0857	83.6	-0.0633	95	inactive	VAMP7 (vesicle associated membrane protein 7)	3
1.65	115	1.07	96.6	inactive	FAM201B (family with sequence similarity 201 member B)	1
0.0272	82.4	-0.193	96.9	inactive	FAM201B (family with sequence similarity 201 member B)	2
-1.05	61.1	-1.61	104	inactive	FAM201B (family with sequence similarity 201 member B)	3
3.15	144	2.11	92.6	active	ITGAX (integrin subunit alpha X)	1
-1.12	59.7	-0.763	81.5	inactive	ITGAX (integrin subunit alpha X)	2
-0.306	75.8	-0.654	101	inactive	ITGAX (integrin subunit alpha X)	3
0.624	94.3	0.344	96.2	inactive	GDA (guanine deaminase)	1
2.11	124	0.957	108	inactive	GDA (guanine deaminase)	2
-0.602	69.9	-0.565	90.7	inactive	GDA (guanine deaminase)	3
-0.841	65.2	-1.15	98.7	inactive	HSPB2 (heat shock protein family B (small) member 2)	1
-0.139	79.1	0.401	79.6	inactive	HSPB2 (heat shock protein family B (small) member 2)	2
-0.422	73.5	-0.572	95.5	inactive	HSPB2 (heat shock protein family B (small) member 2)	3
-1.31	55.9	-0.0663	63.6	inactive	FRG1 (FSHD region gene 1)	1
1.92	120	2.53	69	inactive	FRG1 (FSHD region gene 1)	2
-0.772	66.5	-0.649	88.2	inactive	FRG1 (FSHD region gene 1)	3
1.1	104	0.529	101	inactive	EPN3 (epsin 3)	1
-0.0925	80	0.265	83.4	inactive	EPN3 (epsin 3)	2
1.97	121	1.98	80.3	inactive	EPN3 (epsin 3)	3
0.0863	83.6	1.74	59	inactive	SLC27A3	1
0.263	87.1	1.58	64.2	inactive	SLC27A3	2
-0.198	77.9	-0.783	107	inactive	SLC27A3	3
4.47	171	3.14	83.5	active	MAU2	1
-0.37	74.5	1.38	57.9	inactive	MAU2	2
0.389	89.6	1.04	76.2	inactive	MAU2	3
-0.534	71.3	-0.875	100	inactive	LRTM1 (leucine rich repeat transmembrane protein 1)	1
-0.12	79.5	-0.337	97.1	inactive	LRTM1 (leucine rich repeat transmembrane protein 1)	2
-1.98	42.6	-2.04	81.4	inactive	LRTM1 (leucine rich repeat transmembrane protein 1)	3
-0.511	71.7	-0.722	96.9	inactive	PNO1 (partner of NOB1 homolog)	1
0.927	100	0.425	100	inactive	PNO1 (partner of NOB1 homolog)	2
-1.89	44.3	-1.84	80.5	inactive	PNO1 (partner of NOB1 homolog)	3
2.03	122	1.14	101	inactive	CHAF1B (chromatin assembly factor 1 subunit B)	1
1.19	106	1.01	90.5	inactive	CHAF1B (chromatin assembly factor 1 subunit B)	2
3.14	144	2	95.1	active	CHAF1B (chromatin assembly factor 1 subunit B)	3
-0.304	75.8	0.424	75.8	inactive	CDHR1 (cadherin related family member 1)	1
1.32	108	1.6	79.2	inactive	CDHR1 (cadherin related family member 1)	2
-0.935	63.3	-0.955	91	inactive	CDHR1 (cadherin related family member 1)	3
0.168	85.2	0.311	87.8	inactive	ADGRA1 (adhesion G protein-coupled receptor A1)	1
-0.221	77.5	0.2	82.2	inactive	ADGRA1 (adhesion G protein-coupled receptor A1)	2
-0.0732	80.4	-0.464	102	inactive	ADGRA1 (adhesion G protein-coupled receptor A1)	3
0.655	94.9	1.69	67.9	inactive	IQSEC3 (IQ motif and Sec7 domain ArfGEF 3)	1
-0.746	67.1	-0.958	96.4	inactive	IQSEC3 (IQ motif and Sec7 domain ArfGEF 3)	2
-1.56	50.8	-1.81	91.4	inactive	IQSEC3 (IQ motif and Sec7 domain ArfGEF 3)	3
-0.617	69.6	-1.06	103	inactive	ZDHHC15 (zDHHC palmitoyltransferase 15)	1
-1.65	49.1	-0.921	70	inactive	ZDHHC15 (zDHHC palmitoyltransferase 15)	2
0.258	87	0.263	90.7	inactive	ZDHHC15 (zDHHC palmitoyltransferase 15)	3
-1.11	59.9	-1.36	95.7	inactive	SNX11 (sorting nexin 11)	1
-0.238	77.2	0.256	80.6	inactive	SNX11 (sorting nexin 11)	2
0.181	85.5	0.564	82.4	inactive	SNX11 (sorting nexin 11)	3
-1.06	60.8	-1.02	88.9	inactive	PGM2 (phosphoglucomutase 2)	1
-0.599	70	-0.807	96.7	inactive	PGM2 (phosphoglucomutase 2)	2
-0.998	62	-0.679	82.9	inactive	PGM2 (phosphoglucomutase 2)	3
-0.374	74.4	-1.09	111	inactive	MYOM3 (myomesin 3)	1
-0.575	70.4	-0.652	93.5	inactive	MYOM3 (myomesin 3)	2
-1.17	58.6	-1.71	103	inactive	MYOM3 (myomesin 3)	3
